Some of the results follow. Small differences around the control level are noise.

The chains behind the UniProt entries cited, without tags or fusion partners. Where a name states a change or a piece, a line headed by the entry shows the natural chain unless it says otherwise.
UniProt Q9CR29: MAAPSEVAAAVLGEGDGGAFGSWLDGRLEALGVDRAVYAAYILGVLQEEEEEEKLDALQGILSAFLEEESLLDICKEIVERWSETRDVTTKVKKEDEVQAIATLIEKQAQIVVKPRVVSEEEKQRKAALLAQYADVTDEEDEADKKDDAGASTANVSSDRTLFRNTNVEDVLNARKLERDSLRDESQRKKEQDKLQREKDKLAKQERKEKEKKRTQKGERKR
UniProt Q9CR11, whole entry: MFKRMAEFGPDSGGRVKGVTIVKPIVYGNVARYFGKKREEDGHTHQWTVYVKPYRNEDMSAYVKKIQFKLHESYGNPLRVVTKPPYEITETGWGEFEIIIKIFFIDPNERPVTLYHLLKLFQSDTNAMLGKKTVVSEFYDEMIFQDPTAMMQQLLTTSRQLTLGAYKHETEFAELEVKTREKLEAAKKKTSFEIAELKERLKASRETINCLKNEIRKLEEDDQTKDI
UniProt Q9CQS4: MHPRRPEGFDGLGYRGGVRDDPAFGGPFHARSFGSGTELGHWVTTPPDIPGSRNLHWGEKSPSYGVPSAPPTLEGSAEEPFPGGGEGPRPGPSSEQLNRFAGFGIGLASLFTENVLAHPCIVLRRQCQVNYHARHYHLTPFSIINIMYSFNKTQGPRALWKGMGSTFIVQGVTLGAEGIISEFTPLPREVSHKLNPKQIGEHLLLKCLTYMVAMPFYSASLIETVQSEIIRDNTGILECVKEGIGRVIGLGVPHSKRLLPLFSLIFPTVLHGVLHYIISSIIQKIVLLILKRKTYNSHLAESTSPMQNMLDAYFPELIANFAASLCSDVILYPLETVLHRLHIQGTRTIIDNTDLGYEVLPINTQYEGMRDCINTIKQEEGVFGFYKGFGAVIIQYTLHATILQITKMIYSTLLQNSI
UniProt Q9CQZ7: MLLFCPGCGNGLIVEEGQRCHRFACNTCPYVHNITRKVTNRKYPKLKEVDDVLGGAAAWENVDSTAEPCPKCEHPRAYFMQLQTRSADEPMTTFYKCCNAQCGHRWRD
UniProt Q9CQR4: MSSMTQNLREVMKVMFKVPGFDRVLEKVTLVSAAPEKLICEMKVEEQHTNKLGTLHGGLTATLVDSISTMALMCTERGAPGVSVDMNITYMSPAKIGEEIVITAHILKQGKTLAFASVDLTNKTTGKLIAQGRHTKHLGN
UniProt Q9CQB5: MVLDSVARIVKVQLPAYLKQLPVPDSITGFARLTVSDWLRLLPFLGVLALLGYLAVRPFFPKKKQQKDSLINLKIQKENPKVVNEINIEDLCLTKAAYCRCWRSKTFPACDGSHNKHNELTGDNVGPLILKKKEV
UniProt Q9CQG1: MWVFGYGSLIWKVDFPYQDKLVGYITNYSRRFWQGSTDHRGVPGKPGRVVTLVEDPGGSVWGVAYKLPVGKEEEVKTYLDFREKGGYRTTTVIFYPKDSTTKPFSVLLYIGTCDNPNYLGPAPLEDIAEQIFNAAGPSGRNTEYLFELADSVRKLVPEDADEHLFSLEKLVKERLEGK
UniProt Q9CR39: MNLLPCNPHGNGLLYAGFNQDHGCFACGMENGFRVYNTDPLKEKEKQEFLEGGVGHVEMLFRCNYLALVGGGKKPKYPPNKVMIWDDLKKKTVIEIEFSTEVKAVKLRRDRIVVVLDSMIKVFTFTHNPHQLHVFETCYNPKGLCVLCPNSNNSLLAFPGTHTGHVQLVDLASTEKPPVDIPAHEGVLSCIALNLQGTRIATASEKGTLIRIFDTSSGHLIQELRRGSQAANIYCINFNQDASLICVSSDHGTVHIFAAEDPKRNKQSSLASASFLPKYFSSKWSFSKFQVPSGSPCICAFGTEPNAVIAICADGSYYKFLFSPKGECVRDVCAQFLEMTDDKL
UniProt Q9CQI7, whole entry: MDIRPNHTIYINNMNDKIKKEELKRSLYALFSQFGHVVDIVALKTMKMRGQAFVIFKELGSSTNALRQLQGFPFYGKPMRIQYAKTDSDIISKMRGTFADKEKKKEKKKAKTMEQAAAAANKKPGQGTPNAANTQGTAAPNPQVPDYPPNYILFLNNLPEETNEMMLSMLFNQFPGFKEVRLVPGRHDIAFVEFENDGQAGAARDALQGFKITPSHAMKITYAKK
UniProt Q9CPZ8: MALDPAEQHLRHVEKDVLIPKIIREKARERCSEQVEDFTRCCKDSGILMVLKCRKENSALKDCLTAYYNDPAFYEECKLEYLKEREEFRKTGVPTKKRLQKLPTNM
UniProt Q9CQQ7: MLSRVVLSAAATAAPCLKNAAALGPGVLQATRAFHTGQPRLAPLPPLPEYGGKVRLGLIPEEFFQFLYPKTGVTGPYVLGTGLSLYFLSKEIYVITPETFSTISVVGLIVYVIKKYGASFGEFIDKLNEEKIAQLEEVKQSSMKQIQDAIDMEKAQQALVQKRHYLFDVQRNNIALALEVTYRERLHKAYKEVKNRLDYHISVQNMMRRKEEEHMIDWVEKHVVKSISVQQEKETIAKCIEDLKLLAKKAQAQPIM
UniProt Q9CQB7: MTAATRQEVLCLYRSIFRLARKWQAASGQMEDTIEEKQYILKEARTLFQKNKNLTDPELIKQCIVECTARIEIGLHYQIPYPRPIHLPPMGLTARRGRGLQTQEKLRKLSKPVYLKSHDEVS
UniProt Q9CR02: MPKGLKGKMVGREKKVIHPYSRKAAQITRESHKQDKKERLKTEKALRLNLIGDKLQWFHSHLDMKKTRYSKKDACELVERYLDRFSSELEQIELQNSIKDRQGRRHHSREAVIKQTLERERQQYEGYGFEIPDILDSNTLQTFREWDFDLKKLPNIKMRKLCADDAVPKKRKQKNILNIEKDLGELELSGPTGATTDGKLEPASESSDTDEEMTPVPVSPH
UniProt Q99MP8: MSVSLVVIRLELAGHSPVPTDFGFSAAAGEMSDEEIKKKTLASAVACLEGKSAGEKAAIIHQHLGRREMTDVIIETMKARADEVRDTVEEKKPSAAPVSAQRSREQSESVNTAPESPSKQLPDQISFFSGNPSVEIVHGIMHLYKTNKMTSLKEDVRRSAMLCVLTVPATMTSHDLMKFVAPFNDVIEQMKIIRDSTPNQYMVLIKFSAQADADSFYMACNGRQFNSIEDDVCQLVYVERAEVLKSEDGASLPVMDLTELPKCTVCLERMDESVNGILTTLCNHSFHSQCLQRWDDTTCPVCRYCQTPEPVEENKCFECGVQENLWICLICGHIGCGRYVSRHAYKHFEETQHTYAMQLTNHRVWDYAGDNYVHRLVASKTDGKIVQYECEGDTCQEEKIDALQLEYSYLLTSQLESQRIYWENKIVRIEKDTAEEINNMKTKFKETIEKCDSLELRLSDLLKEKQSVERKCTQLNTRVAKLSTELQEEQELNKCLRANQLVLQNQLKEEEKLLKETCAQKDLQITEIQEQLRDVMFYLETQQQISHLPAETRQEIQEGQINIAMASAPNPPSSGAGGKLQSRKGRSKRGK
UniProt Q9CR47, whole entry: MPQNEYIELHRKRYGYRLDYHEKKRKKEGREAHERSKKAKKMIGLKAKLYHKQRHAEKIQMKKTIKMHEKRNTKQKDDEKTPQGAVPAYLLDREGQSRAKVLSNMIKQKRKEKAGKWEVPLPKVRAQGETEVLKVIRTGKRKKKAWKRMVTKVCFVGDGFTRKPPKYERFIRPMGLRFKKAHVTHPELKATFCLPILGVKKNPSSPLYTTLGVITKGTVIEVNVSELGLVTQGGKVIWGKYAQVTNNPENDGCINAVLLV
UniProt Q9CQ54: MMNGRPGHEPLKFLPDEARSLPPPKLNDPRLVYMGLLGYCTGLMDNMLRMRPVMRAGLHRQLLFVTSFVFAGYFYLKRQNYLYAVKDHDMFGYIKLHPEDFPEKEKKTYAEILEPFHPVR
UniProt Q99MZ3: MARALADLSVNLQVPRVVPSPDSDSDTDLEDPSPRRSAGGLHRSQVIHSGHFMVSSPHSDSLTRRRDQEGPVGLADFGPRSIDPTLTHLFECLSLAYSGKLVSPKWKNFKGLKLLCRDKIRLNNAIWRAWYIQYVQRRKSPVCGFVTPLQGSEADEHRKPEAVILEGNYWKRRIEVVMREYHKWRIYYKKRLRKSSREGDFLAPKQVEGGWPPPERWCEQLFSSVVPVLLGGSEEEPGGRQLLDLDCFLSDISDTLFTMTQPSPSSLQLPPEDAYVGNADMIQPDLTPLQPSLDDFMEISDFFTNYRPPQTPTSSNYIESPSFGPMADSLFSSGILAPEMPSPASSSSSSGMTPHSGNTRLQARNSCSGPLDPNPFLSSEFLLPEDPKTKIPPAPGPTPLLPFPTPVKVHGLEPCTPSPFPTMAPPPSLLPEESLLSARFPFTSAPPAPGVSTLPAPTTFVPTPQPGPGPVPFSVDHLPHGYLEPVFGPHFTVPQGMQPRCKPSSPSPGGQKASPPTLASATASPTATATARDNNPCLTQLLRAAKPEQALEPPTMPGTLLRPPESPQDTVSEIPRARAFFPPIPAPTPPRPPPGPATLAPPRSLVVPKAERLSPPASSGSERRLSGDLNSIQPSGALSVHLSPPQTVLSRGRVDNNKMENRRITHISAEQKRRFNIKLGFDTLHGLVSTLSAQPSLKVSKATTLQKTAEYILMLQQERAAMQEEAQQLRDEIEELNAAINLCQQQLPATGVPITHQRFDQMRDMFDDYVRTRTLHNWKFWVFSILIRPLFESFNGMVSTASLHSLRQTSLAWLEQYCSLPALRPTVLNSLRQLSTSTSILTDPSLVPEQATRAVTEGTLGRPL
UniProt Q99PU7: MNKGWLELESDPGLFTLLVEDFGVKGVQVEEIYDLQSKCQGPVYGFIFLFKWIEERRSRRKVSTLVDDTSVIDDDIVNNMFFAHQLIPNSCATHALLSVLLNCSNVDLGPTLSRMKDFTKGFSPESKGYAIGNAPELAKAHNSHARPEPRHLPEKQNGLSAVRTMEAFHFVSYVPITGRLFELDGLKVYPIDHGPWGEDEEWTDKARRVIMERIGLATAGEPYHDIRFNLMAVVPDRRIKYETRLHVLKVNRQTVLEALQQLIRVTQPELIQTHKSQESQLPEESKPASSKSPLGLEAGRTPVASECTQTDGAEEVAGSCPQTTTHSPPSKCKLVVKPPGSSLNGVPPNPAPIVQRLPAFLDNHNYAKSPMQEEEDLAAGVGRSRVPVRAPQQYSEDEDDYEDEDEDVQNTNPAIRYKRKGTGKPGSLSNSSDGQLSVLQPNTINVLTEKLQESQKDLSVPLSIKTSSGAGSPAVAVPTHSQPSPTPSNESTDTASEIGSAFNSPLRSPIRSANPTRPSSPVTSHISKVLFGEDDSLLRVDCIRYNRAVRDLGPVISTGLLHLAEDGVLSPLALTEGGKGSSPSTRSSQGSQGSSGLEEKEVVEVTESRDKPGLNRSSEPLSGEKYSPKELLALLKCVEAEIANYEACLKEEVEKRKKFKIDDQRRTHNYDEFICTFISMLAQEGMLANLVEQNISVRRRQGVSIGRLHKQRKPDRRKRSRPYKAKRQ
UniProt Q9CQN3: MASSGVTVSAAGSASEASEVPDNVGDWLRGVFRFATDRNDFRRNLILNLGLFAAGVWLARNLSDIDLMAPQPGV
UniProt Q99M03: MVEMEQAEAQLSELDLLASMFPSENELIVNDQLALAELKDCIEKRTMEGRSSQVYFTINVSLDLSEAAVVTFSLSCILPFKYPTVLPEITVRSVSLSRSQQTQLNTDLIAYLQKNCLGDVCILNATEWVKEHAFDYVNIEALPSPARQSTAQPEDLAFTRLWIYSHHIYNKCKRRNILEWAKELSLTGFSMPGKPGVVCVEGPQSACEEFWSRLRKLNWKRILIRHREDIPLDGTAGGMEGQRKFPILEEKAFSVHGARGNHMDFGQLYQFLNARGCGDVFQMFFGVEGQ
UniProt Q99N42: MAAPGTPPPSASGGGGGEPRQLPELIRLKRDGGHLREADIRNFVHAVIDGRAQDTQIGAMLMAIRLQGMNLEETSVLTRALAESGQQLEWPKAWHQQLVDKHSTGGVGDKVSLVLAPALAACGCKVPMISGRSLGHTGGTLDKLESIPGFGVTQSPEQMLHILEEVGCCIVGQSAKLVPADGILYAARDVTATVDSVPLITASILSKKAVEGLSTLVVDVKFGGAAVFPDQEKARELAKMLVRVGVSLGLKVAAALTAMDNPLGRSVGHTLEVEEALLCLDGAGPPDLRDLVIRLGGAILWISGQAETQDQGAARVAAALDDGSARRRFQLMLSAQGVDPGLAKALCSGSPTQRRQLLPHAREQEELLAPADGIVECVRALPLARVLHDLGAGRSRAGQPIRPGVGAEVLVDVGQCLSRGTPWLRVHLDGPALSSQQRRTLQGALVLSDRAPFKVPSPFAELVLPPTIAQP
UniProt Q9CQI9: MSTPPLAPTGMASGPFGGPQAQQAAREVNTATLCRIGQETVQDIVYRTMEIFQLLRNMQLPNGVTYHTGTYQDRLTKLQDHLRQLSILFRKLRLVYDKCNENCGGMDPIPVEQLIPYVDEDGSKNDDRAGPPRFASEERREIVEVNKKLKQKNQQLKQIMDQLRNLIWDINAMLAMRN
UniProt Q9CQL6: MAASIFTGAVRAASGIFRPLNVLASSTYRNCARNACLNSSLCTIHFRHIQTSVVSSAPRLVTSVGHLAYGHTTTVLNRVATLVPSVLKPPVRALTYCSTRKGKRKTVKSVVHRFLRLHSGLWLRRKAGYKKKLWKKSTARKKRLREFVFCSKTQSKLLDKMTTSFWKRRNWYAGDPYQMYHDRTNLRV
UniProt Q99LY9: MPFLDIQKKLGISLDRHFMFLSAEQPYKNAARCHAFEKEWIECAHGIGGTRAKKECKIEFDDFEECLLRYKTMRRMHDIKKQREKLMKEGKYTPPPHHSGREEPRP

Compound in this assay: CN[C@@H]1C[C@H]2O[C@@](C)([C@@H]1OC)n1c3ccccc3c3c4c(c5c6ccccc6n2c5c31)C(=O)NC4 [staurosporine]
The assay is described as follows: log2 fold change of tryptic peptide abundance, ligand vs vehicle (limited proteolysis) (log2 ratio); higher = more trypsin-susceptible (destabilized). As to conditions: ligand concentration: 20 uM; sample: mouse liver crude lysate; replicate design: treated separately.
Take “UniProt Q9CQR6 (peptide sequence: GAGWLFGAK, peptide start residue: 211)”: the log2 fold change was 0.0802.
For the target “UniProt Q9CR29 (peptide sequence: VKKEDEVQAIATLIEK, peptide start residue: 92)”, the log2 fold change came to 0.0666.
For “UniProt Q99MK9 (peptide sequence: KPPSLQDAR, peptide start residue: 181)”, the log2 fold change is 0.291.
For the target “UniProt Q9CR11 (peptide sequence: TSFEIAELKER, peptide start residue: 190)”, the log2 fold change amounted to 0.869.
As for “UniProt Q9CQS4 (peptide sequence: VIGLGVPHSK, peptide start residue: 247)”, the figure is 0.214; as for “UniProt Q9CQZ7 (peptide sequence: SADEPMTTFYK, peptide start residue: 86)”, 0.393; as for “UniProt Q9CQR4 (peptide sequence: VLEKVTLVSAAPEK, peptide start residue: 24)”, -0.363.
Turning to “UniProt Q9CQB5 (peptide sequence: VQLPAYLK, peptide start residue: 12)”, the log2 fold change is 0.226.
As for “UniProt Q9CQG1 (peptide sequence: RFWQGSTDHR, peptide start residue: 31)”, the figure is 0.219.
Then “UniProt Q9CR39 (peptide sequence: QSSLASASFLPK, peptide start residue: 267)”, with -0.0457.
Then “UniProt Q9CQI7 (peptide sequence: TMEQAAAAANK, peptide start residue: 112)”, with 0.129; and “UniProt Q9CPZ8 (peptide sequence: ERCSEQVEDFTR, peptide start residue: 29)”, with -0.55; and “UniProt Q9CQQ7 (peptide sequence: RKEEEHMIDWVEK, peptide start residue: 209)”, with 0.157.
For “UniProt Q9CQB7 (peptide sequence: KWQAASGQMEDTIEEK, peptide start residue: 22)”, the log2 fold change is 0.366.
For the target “UniProt Q9CR02 (peptide sequence: LQWFHSHLDMK, peptide start residue: 55)”, the log2 fold change was -0.165.
As for “UniProt Q99MP8 (peptide sequence: IVRIEKDTAEEINNMK, peptide start residue: 426)”, the figure is 0.648.
As for “UniProt Q99MD9 (peptide sequence: EAQLYAAQAHLK, peptide start residue: 522)”, the figure is 0.165.
As for “UniProt Q9CR47 (peptide sequence: WEVPLPK, peptide start residue: 117)”, the figure is -0.447; as for “UniProt Q9CQ54 (peptide sequence: TYAEILEPFHPVR, peptide start residue: 108)”, -0.199.
As for “UniProt Q99MZ3 (peptide sequence: ITHISAEQK, peptide start residue: 664)”, the log2 fold change was -0.16.
Then “UniProt Q99PU7 (peptide sequence: GYAIGNAPELAK, peptide start residue: 128)”, with 0.232.
As for “UniProt Q9CQA6 (peptide sequence: PILKPNKPLILANR, peptide start residue: 19)”, the figure is -0.197; as for “UniProt Q9CQQ0 (peptide sequence: KEPLKEK, peptide start residue: 12)”, 0.154.
Take “UniProt Q9CQ62 (peptide sequence: LDPTGRFEK, peptide start residue: 252)”: the log2 fold change is -0.254.
As for “UniProt Q9CQN3 (peptide sequence: FATDRNDFRR, peptide start residue: 34)”, the figure is -0.0978; as for “UniProt Q99M03 (peptide sequence: HREDIPLDGTAGGMEGQR, peptide start residue: 226)”, -0.167.
As for “UniProt Q99N42 (peptide sequence: TLQGALVLSDR, peptide start residue: 440)”, the figure is -0.373; as for “UniProt Q9CQI9 (peptide sequence: EIVEVNKK, peptide start residue: 141)”, -0.538; as for “UniProt Q99N57 (peptide sequence: AAHTEDINACTLTTSPR, peptide start residue: 628)”, -0.165.
For the target “UniProt Q9CQL6 (peptide sequence: EFVFCSK, peptide start residue: 146)”, the log2 fold change was -0.196.
As for “UniProt Q99LY9 (peptide sequence: EWIECAHGIGGTR, peptide start residue: 39)”, the figure is -0.567.

The record behind these values is the supplement of paper PMC12819154, “High-throughput peptide-centric local stability assay extends protein–ligand identification to membrane proteins, tissues and bacteria” (Nature Structural & Molecular Biology, 2025).
